{"source": "PubChem BioAssay AID1458", "about": "(National Center for Advancing Translational Sciences (NCATS), 2008)", "note": "Hit rate of the full screen: of about 210,000 compounds, about 5,900 (2.8%) were called active. Not shown: some 5% with an inconclusive outcome. Calls follow the shape of the dose curve; as a rule, active = well fitted activation curve with a large enough effect; inconclusive = small, poorly fitted or top-dose-only effect; inactive = no such curve, though single readings can be large or run the other way. This is a selection; strong and weak results do not stand in their true shares. The source gives no active or inactive call for entries shown without one. Potency is read from the fitted curve at half-maximal effect."}
{"assay": "qHTS Assay for Enhancers of SMN2 Splice Variant Expression; also: nearly all actives have a fitted effect of over 55% in size; as to activity change, positive = activation: % of control where 0% means no effect", "conditions": "HEK293 SMN2-luciferase splicing reporter, luminescence, 30-36 h; activity change, positive = activation: at 46.1 µM (top of the series) unless noted", "excerpt": "NIH Chemical Genomics Center [NCGC] NIH Molecular Libraries Probe Production centers Network [MLPCN] MLPCN Grant: R03 MH084179-01 Assay Submitter (PI): Elliot Androphy NCGC Assay Overview: Spinal muscular atrophy (SMA) is caused by insufficient levels of the survival motor neuron protein SMN. The SMN locus on chromosome 5q13 contains two inverted copies of SMN called SMN1 and SMN2 which are 99% identical at the amino acid level. SMN1 is a fully functional protein and SMN2 skips exon 7 90% of the time. Skipping of exon 7 produces non-functional protein product. 10% of the SMN2 protein includes exon 7 and is fully functional. In the SMA disease state, mutations in the SMN1 locus are the cause of the disease state. Because only 10% of SMN2 is of the fully functional form, it is not sufficient to overcome the deficiency produced by the loss of the SMN1 product. A therapy that either increase the amount of SMN2 product made or to increase the inclusion of exon 7 has been proposed for the treatment of SMA. We have designed an assay to identify small molecules that can increase the amount of functional SMN2 product by appending a luciferase reporter gene after the native SMN2 gene, such that inclusion of exon 7 in the expressed product places the luciferase sequence in frame, thus generating functional luciferase enzyme.\nNCGC Assay Protocol Summary: This screen utilizes a luciferase reporter gene assay, combining the promoter and splicing based cassettes in tandem with the major portion of the native SMN2 cDNA, and then transfected into HEK293 cells. Compounds that increase luciferase signal presumably enhance expression of the functional SMN2 splice variant. Passaging media contained DMEM w/ glutamax (+phenol red) 10% FCS, 1x pen/strep, 200 ug/ml hygro, 1x sodium pyruvate. Assay media contained DMEM w/ glutamax (-phenol red) 10% FCS, 1x pen strep, 1x pyruvate Sequence, Parameter, Value, Description (1) Cells, […], 2000 cells/well, 1536 TC treated White solid bottom plate (2) Time, 10-12 hours, 37C 5% CO2 (3) Compound, 23 nl, MLSMR Library (4) Control Compound, 23 nL, Sodium butyrate st 4.5mM (final) conc (5) Time, 30-36 hours, 37C 5% CO2 (6) Reagent, 3 ul, One Glo (TM) from Promega (7) Time, 5-15 minutes, Room temp (8) Detector, Viewlux: luminescent read, 60 second integration, high speed 2x binning Keywords: Spinal muscular atrophy, SMA, SMN2, high throughput screening, MLSMR, MLPCN, NIH Roadmap, qHTS and NCGC"}
{"smiles": "O=S(=O)(Nc1cc(Sc2ncn[nH]2)c(O)c2ccccc12)c1ccccc1", "activity change, positive = activation": "inactive: -113%"}
{"smiles": "Cc1conc1NC(c1cccs1)c1ccc2cccnc2c1O", "note": "(stereo not given)", "activity change, positive = activation": "inactive: -77.5%"}
{"smiles": "O=C(c1cccc(F)c1)N1CCC2(CC1)CCN(c1ncccn1)CC2", "activity change, positive = activation": "inactive: -39.2%"}
{"smiles": "COc1ccc2oc3cc(C)[n+]([O-])c(-c4ccc(Cl)cc4)c3c2c1", "activity change, positive = activation": "-62.5%"}
{"smiles": "O=S(=O)(c1ccc(-c2csc(=Nc3ccc(OC(F)(F)Cl)cc3)n2CCCO)cc1)N1CCCC1", "activity change, positive = activation": "inactive: -103%"}
{"smiles": "Cc1ccnc(N2C(=O)OC(C)(C)C2(C)O)c1", "note": "(stereo not given)", "activity change, positive = activation": "17.3%"}
{"smiles": "CCOC(=O)c1c(C)[nH]c(C(=O)COC(=O)CCC2CCCC2)c1C", "activity change, positive = activation": "39.7%"}
{"smiles": "Cc1c(NC(=O)c2cccnc2C(=O)O)cccc1C(=O)O", "activity change, positive = activation": "5.6%"}
{"smiles": "O=C(CN(c1ccc(Cl)cc1)S(=O)(=O)c1ccccc1)N/N=C/c1ccco1", "activity change, positive = activation": "44.2%"}
{"smiles": "CC(=O)Nc1nc(C)c(-c2csc(Nc3ccccn3)n2)s1", "Potency": "active: 12.6 µM"}
{"smiles": "Cc1ccc(CN2CC(C(=O)Nc3cccc(S(=O)(=O)N4CCCCC4)c3)CC2=O)cc1", "note": "(stereo not given)", "activity change, positive = activation": "-47.7%"}
{"smiles": "O=C(COc1ccccc1)NNc1c2ccccc2nc2ccccc12", "activity change, positive = activation": "-71.5%"}
{"smiles": "O=C(NC1=NCCS1)C1COc2ccccc2O1", "note": "(stereo not given)", "activity change, positive = activation": "-55.1%"}
{"smiles": "CCC(c1nnc(SCC(=O)Nc2cc(Cl)ccc2C#N)n1C1CCCCC1)N(C)C", "note": "(stereo not given)", "activity change, positive = activation": "18.1%"}
{"smiles": "O=C(NCC1CCCO1)c1cnn2c1NC(c1ccccc1)CC2C(F)(F)F", "note": "(stereo not given)", "activity change, positive = activation": "31.2%"}
{"smiles": "COc1ccc(OC)c(NC(=O)CCc2c(C)nc3c(-c4ccccc4)c(C)nn3c2C)c1", "activity change, positive = activation": "inactive: -19.4%"}
{"smiles": "Cc1ccc(C)c(NC2=NS(=O)(=O)c3ccccc32)c1", "activity change, positive = activation": "42.3%"}
{"smiles": "CCCCNS(=O)(=O)c1ccc(NC(=O)C2CCCO2)cc1", "note": "(stereo not given)", "activity change, positive = activation": "inactive: -33.9%"}
{"smiles": "O=C(CSc1ccc(-c2ccc3c(c2)OCO3)nn1)Nc1nccs1", "activity change, positive = activation": "-12.9%"}
{"smiles": "CC(C)c1cc(C(=O)Nc2cccc(Cl)c2)no1", "Potency": "active: 11.2 µM"}
{"smiles": "COc1ccc(Cl)cc1NC(=O)CN1CCC(n2nnc3cc(C)ccc32)CC1", "activity change, positive = activation": "inactive: -58.8%"}
{"smiles": "COC(=O)Cc1ccc(NC(=S)N2CCN(c3ccc(F)cc3)CC2)cc1", "activity change, positive = activation": "inactive: -46.4%"}
{"smiles": "COc1cc(CNc2cccc(C(=O)O)c2)cc(Br)c1OCC(=O)NC(C)(C)C", "activity change, positive = activation": "9.2%"}
{"smiles": "O=C(Nc1cccc(C(F)(F)F)c1)c1cnc2n(c1=O)CCS2", "activity change, positive = activation": "inactive: -19.5%"}
{"smiles": "COc1ccc(C)cc1NC(=O)c1ccccc1NS(=O)(=O)c1ccc(Cl)s1", "activity change, positive = activation": "-57%"}
{"smiles": "C=CCSc1nnc2c(n1)OC(c1c(C)[nH]n(-c3ccccc3)c1=O)Nc1ccccc1-2", "note": "(stereo not given)", "activity change, positive = activation": "31.9%"}
{"smiles": "CCOC(=O)C(Cc1cc(C(C)=O)ccc1OCC)C(=O)OCC", "activity change, positive = activation": "33.8%"}
{"smiles": "Cc1ccc(C)c(NC(=O)CSc2ccc(-c3ccco3)nn2)c1", "activity change, positive = activation": "30.1%"}
{"smiles": "Cc1cccc(OCc2nnc(SCC(=O)Nc3cc(C)on3)n2C)c1", "activity change, positive = activation": "38%"}
{"smiles": "CC(C)Cn1c2nc3ccccc3nc2c2c(=O)n(CCN3CCOCC3)cnc21", "activity change, positive = activation": "33.3%"}
{"smiles": "CC(=O)Cc1nsc(NC(=O)c2cccs2)n1", "activity change, positive = activation": "34.4%"}
{"smiles": "Cc1cc(C(=O)COc2cccc(-n3cnnn3)c2)c(C)n1-c1ccccc1", "activity change, positive = activation": "inactive: -32.3%"}
{"smiles": "Cc1ccc(NC(=S)c2nc3ccccc3[nH]2)c(C)c1", "Potency": "active: 5.62 µM"}
{"smiles": "Cc1ccccc1C(=O)NCCSc1ccccc1", "Potency": "active: 12.6 µM"}
{"smiles": "Cc1cccc(/N=C/c2nc(-c3ccccc3Br)oc2O)n1", "activity change, positive = activation": "inactive: -21.6%"}
{"smiles": "CCOC(=O)N1CCC(Nc2c(Nc3ccc(F)cc3)c(=O)c2=O)CC1", "activity change, positive = activation": "52.9%"}
{"smiles": "CCOC(=O)NC(=O)c1cn(C(CC)CO)c(=O)[nH]c1=O", "note": "(stereo not given)", "activity change, positive = activation": "-27.5%"}
{"smiles": "Cc1ccc(C(=O)Nc2cccc(C(=O)O)c2)cc1S(=O)(=O)N1CCOCC1", "Potency": "active: 12.6 µM"}
{"smiles": "O=C(Nc1ccccc1C(=O)N/N=C/c1ccncc1)c1ccccc1", "activity change, positive = activation": "136%"}
{"smiles": "COc1cc(C(=O)OC2CCN(C)CC2)cc(OC)c1OC", "activity change, positive = activation": "37.5%"}
{"smiles": "CCN1CCCC1CNC(=O)C(=O)Nc1cccc(OC)c1", "note": "(stereo not given)", "activity change, positive = activation": "10%"}
{"smiles": "CCN1/C(=C/c2ccc3cc(C)ccc3[n+]2CC)Sc2cc(C)ccc21", "activity change, positive = activation": "inactive: -63.1%"}
{"smiles": "Cc1ccc(NS(=O)(=O)c2ccc(C(=O)N3CCN(c4ncccn4)CC3)cc2)cc1", "activity change, positive = activation": "inactive: -47.7%"}
{"smiles": "Cc1c(NC(=O)CCSCCc2ccccn2)cccc1[N+](=O)[O-]", "activity change, positive = activation": "-34.9%"}
{"smiles": "Cc1ccc(CNC2=NCCCCC2)n1C", "activity change, positive = activation": "44.6%"}
{"smiles": "O=C(CCCC(=O)OCC(=O)NC1CCCC1)Nc1ccccn1", "activity change, positive = activation": "54.7%"}
{"smiles": "CCOC(=O)c1ccc(N2CC(O)=C(c3nc4ccccc4c(=O)[nH]3)C2=N)cc1", "activity change, positive = activation": "42.1%"}
{"smiles": "O=C(c1ccc(S(=O)(=O)N2CCOCC2)cc1)N1CCN(C2=NS(=O)(=O)c3ccccc32)CC1", "activity change, positive = activation": "29.8%"}
{"smiles": "O=C(Nc1nnc(-c2ccc3c(c2)CCCC3)o1)c1ccccc1", "activity change, positive = activation": "inactive: -48.1%"}
{"smiles": "CCc1c(C)sc(NC(=O)c2cnn3cccnc23)c1C#N", "activity change, positive = activation": "25.6%"}
{"smiles": "COc1ccc(-n2cccc2/C=C/[N+](=O)[O-])cc1", "activity change, positive = activation": "inactive: -95.6%"}
{"smiles": "C#CC(=O)N(c1cc(OC)ccc1OC)C(C(=O)NC1CCCC1)c1cccs1", "note": "(stereo not given)", "activity change, positive = activation": "inactive: -33.7%"}
{"smiles": "Cn1c(=O)n(C)c2cc(NC(=O)c3cc4ccccc4o3)ccc21", "activity change, positive = activation": "82%"}
{"smiles": "O=C(c1c[nH]c(C(=O)N2CCN(c3ccccc3F)CC2)c1)c1cccc(Cl)c1Cl", "activity change, positive = activation": "inactive: -52.8%"}
{"smiles": "CCCN(CCC)CCCNC(=O)c1nn(-c2cccc(OC)c2)c(=O)c2ccccc12", "activity change, positive = activation": "-23.6%"}
